Reference: article PMC7206099

Sequences of proteins named here, by UniProt entry; tags and fusion partners are left off.
UniProt Q14694: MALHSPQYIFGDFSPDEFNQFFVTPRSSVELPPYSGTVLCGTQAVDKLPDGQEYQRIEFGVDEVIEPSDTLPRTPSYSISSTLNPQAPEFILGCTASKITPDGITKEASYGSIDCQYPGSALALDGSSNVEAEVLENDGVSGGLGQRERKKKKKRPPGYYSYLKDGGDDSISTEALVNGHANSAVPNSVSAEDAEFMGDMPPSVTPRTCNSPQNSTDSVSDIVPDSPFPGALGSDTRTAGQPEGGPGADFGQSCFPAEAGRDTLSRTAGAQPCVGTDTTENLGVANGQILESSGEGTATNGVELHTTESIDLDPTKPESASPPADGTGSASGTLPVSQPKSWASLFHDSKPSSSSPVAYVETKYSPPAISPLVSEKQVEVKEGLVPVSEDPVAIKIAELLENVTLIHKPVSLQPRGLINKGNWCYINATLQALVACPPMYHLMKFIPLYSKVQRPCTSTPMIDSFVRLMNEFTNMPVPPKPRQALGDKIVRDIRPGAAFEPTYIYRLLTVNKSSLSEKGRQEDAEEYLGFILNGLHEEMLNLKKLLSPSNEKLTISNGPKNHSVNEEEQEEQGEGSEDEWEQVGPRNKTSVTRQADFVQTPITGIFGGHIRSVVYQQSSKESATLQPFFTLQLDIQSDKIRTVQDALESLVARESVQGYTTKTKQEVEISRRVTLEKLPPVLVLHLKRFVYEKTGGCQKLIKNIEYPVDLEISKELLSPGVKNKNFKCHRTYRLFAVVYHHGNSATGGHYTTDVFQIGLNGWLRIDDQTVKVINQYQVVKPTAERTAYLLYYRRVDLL
UniProt Q9UBN7: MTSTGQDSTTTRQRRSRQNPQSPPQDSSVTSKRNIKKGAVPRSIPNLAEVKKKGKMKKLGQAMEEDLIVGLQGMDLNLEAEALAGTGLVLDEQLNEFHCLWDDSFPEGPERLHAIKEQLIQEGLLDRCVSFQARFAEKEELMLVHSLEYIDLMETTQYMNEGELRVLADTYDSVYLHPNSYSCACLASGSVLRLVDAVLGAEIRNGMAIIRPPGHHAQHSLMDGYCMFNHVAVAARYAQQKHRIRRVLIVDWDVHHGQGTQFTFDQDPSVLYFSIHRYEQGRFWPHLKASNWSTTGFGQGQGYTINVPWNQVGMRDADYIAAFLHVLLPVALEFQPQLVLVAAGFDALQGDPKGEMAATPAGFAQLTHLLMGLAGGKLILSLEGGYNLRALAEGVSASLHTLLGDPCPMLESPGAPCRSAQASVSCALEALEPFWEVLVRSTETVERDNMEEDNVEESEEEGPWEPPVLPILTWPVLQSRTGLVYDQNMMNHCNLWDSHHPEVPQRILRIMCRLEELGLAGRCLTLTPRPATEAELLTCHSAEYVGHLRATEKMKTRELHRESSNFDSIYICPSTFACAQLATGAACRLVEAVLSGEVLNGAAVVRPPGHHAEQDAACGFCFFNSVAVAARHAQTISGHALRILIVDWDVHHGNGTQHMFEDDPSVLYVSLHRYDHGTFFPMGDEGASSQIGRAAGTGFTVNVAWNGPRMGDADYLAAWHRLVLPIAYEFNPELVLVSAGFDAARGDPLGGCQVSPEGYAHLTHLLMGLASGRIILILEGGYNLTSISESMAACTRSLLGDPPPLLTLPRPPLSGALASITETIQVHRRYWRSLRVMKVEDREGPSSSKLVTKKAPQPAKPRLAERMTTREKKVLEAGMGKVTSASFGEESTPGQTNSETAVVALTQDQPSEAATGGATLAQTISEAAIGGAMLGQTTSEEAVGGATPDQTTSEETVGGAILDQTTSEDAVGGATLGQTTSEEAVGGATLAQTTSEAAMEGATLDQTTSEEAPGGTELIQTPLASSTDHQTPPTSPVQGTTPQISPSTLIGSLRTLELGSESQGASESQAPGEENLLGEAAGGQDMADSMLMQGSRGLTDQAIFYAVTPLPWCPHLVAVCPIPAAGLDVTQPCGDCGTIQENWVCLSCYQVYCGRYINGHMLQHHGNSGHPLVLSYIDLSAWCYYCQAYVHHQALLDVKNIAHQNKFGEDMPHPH

Target: Flag-HA-USP10 (UniProt Q14694)
Experiment: affinity purification with mass spectrometry; Flag-HA-USP10 stably expressed in H1299 cells; USP10-associated proteins purified and identified by LC-MS/MS

histone deacetylase 6 (HDAC6), endogenous (from UniProt Q9UBN7 1-1215)
binding: binds

These are yes or no findings as the source states them, for the method shown. Binding seen in cells or lysates may run through a third protein. A yes stands for co-enrichment or nearness to the bait. Other partners may have been found.
